Measured values from PubChem BioAssay AID2685 (National Center for Advancing Translational Sciences (NCATS), 2010).
This is one part of the list. The main result of the screen is listed elsewhere. These columns were measured beside it and carry no call. Compounds called inactive in the main read-out are mostly missing here. Words in brackets tell the shape of the fitted curve; partial curves, single points and poor fits give uncertain potencies.

Experiment: qHTS Assay for Lipid Storage Modulators in Drosophila S3 Cells;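 as to cell number change: cells counted by Cell Tracker Red CMTPX staining in the red channel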
Conditions: BODIPY lipid droplet fluorescence, 18-24 h; for cell number change: measured here: cell count max response, cells fed with added oleic acid
Summary of the method: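 Laser-scanning cytometry quantifies lipid droplet accumulation (500–530 nm total intensity; droplet/cell object ratio) in oleic acid-fed (400 uM added) Drosophila S3 cells treated with a concentration series. 20 uM Triacsin C defined 100% inhibition.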

[1] = measured here: cell number channel AC50, cells fed with added oleic acid
[2] = measured here: lipid fluorescence (Fed channel) AC50, cells fed with added oleic acid

SMILES	cell number change [%]	AC50 [1]	AC50 [2]
COc1ccc2nc3c(cc2c1)c(NC(=O)C1CCCO1)nn3CC(C)C (stereo not given)	-38.9	16.4 µM [falling, single point]	10.3 µM [falling, partial curve, poor fit]
CNC(=O)C(C)NS(=O)(=O)c1ccc(F)cc1 (stereo not given)	-15.7		23.1 µM [falling, partial curve]
CC(Sc1nnnn1C)C(=O)NC1CCCc2ccccc21 (stereo not given)	-26.1		
Cc1ccc2c(-c3csc(N)n3)c[nH]c2c1	-23.6		2.59 µM [rising, full curve]
Cc1c(CNC(=O)c2cnn3c2NC(c2ccc(Br)cc2)CC3C(F)(F)F)cnn1C (stereo not given)	-3.64		0.058 µM [rising, full curve]
Cc1nn(-c2ccccc2)c(Cl)c1/C=N/Nc1nncc(=O)[nH]1	11.1		
CN1C(=O)C2(C(C#N)=C(N)N(c3cc(Cl)cc(Cl)c3)C3=C2C(=O)CC(C)(C)C3)c2ccccc21 (stereo not given)	-3.32		0.461 µM [falling, full curve, poor fit]
COc1cccc(CN(C)CC(=O)Nc2ccccc2C(=O)Nc2ccccc2)c1	37	18.4 µM [rising, partial curve]	
Cc1cccc(OC(=O)c2cccnc2)c1C	-1.17		
CCOc1ccc(C2=C/C(=C/c3cccnc3)C(=O)O2)cc1			2.06 µM [rising, partial curve]
COc1cc(/C=C(\C#N)C(=O)Nc2ccccc2C(=O)O)cc(Cl)c1OC	-115		
O=[N+]([O-])c1ccc(O)c(/C=N/Nc2ccccc2Cl)c1	-8.88		
O=C1c2cccc3c([N+](=O)[O-])ccc(c23)C(=O)N1CCc1ccccn1			14.6 µM [rising, single point]
Cc1ccc2c(CC(=O)OCC(=O)Nc3ccc(Cl)cn3)coc2c1		6.51 µM [rising, partial curve]	0.92 µM [falling, full curve]
CCOc1ccc(S(=O)(=O)N2CCC(C(=O)N3CCOCC3)CC2)cc1Cl	-21.1		1.41 µM [rising, partial curve]
COc1ccc(NC(=O)CCNS(=O)(=O)c2ccc3c(c2)c(=O)n(C)c(=O)n3C)c(OC)c1	-40.1		18.4 µM [rising, single point]
O=C(Nc1cccc(S(=O)(=O)N2CCOCC2)c1)c1cccc(S(=O)(=O)N2CCCC2)c1	23.3		
CC(NCc1cc(Br)ccc1OCC(=O)NCc1ccccc1)c1ccccc1 (stereo not given)	6.05		29.1 µM [falling, single point]
CCc1ccc(CN(C)CC(=O)Nc2ccc(S(=O)(=O)N3CCOCC3)cc2)cc1	-9.03		0.00461 µM [falling, full curve, poor fit]
O=C(CCN1C(=O)c2ccccc2C1=O)N1CCN(C2c3ccccc3-c3ccccc32)CC1	40.4	16.4 µM [rising, single point]	0.58 µM [falling, single point]

SMILES	cell number change [%]	AC50 [1]	AC50 [2]
CCCOc1ccccc1-n1sc2c(c1=S)-c1cc(OC)cc3c1N(C(=O)C3=O)C2(C)C	1.06	0.731 µM [rising, single point]	0.58 µM [rising, single point]
CCN1CCN(CC(=O)c2c(C)n(C)c3ccc(OC)cc23)CC1	-32.5	36.6 µM [falling, single point]	0.82 µM [falling, full curve]
Cc1cccc(OCCCC(=O)Nc2ccc(S(=O)(=O)N3CCCC3)cc2)c1	-33.8	13 µM [falling, single point]	14.6 µM [falling, single point]
Cc1cccn2c(=O)c3cc(C(=O)NCCc4ccccc4)c(=N)n(Cc4ccco4)c3nc12	-8.73		1.46 µM [falling, partial curve]
CCn1c(COc2ccccc2C)nnc1SCC(=O)OC	-12.6		23.1 µM [falling, partial curve]
Cc1ccc2nc3n(c(=O)c2c1)-c1cc(Cl)ccc1C(=O)NC3Cc1ccccc1 (stereo not given)	16.9	4.61 µM [rising, single point]	
COc1ccccc1Nc1nnc(C)c(=O)[nH]1	22.1		23.1 µM [rising, partial curve]
O=C(CSc1nnc(Nc2ccccc2)s1)NCC1CCCO1 (stereo not given)	-34.5	32.6 µM [falling, single point]	
CCC(=O)N1CCc2cc(Br)cc(S(=O)(=O)C3(C(=O)OC)CC3)c21			5.17 µM [rising, single point]
CC(C)(C)n1ncc2c(=O)n(CC(=O)NCc3ccccc3Cl)cnc21	-13.1		0.82 µM [rising, single point]
CCCCCCCCn1ccc(=N)cc1	-59.1	14.6 µM [falling, partial curve]	29.1 µM [falling, single point]
Clc1ccc(Cn2cc(/C=N/n3cnnc3)c3ccccc32)c(Cl)c1	-83.6	29.1 µM [falling, single point]	23.1 µM [falling, single point]
Cc1ccccc1OCC(=O)Nc1ccccc1C(=O)N1CCCCC1	-4.91		4.11 µM [falling, single point]
Cc1ccc(CNC(=O)c2sc3ccc(S(=O)(=O)N4CCCCC4)cc3c2N)cc1	-21.6		29.1 µM [falling, single point]
O=C(NC1CCCC1)c1ccccc1-c1nc2ccccc2[nH]1	50.3	25.9 µM [rising, single point]	29.1 µM [rising, partial curve]
CCCCn1c(-c2ccccc2)nc2c(=O)n(C)c(=O)[nH]c21	2.05		6.51 µM [falling, single point]
COc1ccccc1C(=O)Nc1cccc(Oc2c(F)c(F)c(F)c(F)c2F)c1	28.6		1.64 µM [rising, partial curve]
Cc1ccccc1C(=O)N1CCC(C(N)=O)CC1	19.6		
CCc1ccccc1N/C(=N\S(=O)(=O)c1ccccc1)C(F)(F)F	20.9	0.651 µM [rising, full curve, poor fit]	6.51 µM [rising, single point]
Cc1ccc(-c2nnc(NCCCO)c3ccccc23)cc1	-5.56		29.1 µM [rising, single point]

SMILES	cell number change [%]	AC50 [1]	AC50 [2]
Cc1ccc(S(C)(=O)=O)cc1C(=O)N1CC(C(N)=O)Oc2ccccc21 (stereo not given)	26.1		
CS(=O)(=O)N(CC(=O)Nc1ccc(F)cc1F)c1cccc([N+](=O)[O-])c1			0.0206 µM [rising, full curve, poor fit]
O=C(NCc1ccccc1)c1noc2c1CCCCC2	31.9	13 µM [rising, partial curve, poor fit]	
NC1=NC(=Nc2ccccc2)c2ccccc21	-0.147	0.00461 µM [falling, full curve, poor fit]	
COc1cccc(NCc2ccc([N+](=O)[O-])s2)c1		0.92 µM [rising, full curve, poor fit]	0.00517 µM [rising, full curve, poor fit]
Cc1ccc(S(=O)(=O)c2nnn3c2nc(N2CCOCC2)c2ccccc23)cc1	-23.2		6.51 µM [falling, single point]
CCOc1ccc2nc(NC(=O)C(NS(=O)(=O)c3cccs3)C(C)C)sc2c1 (stereo not given)			0.58 µM [rising, single point]
COC(=O)c1cc(Br)c(=O)n(Cc2cccnc2)c1	50.3	0.92 µM [rising, full curve]	0.146 µM [rising, full curve, poor fit]
COc1ccc(C2CC(c3cc(Br)ccc3F)n3nnnc3N2)cc1 (stereo not given)	-12.7		18.4 µM [rising, single point]
CCOC(=O)c1cc[n+](CC(=O)c2ccc(F)cc2)cc1	86.3	18.4 µM [rising, single point]	20.6 µM [rising, single point]
CC(=O)c1c(Cl)nc2cccc3c2c1-c1ccccc1C3=O	9.46		18.4 µM [falling, single point]
COC(=O)c1oc2nc(C)cc(C)c2c1N	4.1		2.06 µM [rising, partial curve]
COc1ccc(NS(=O)(=O)c2ccc(N3CCCC3)c(NC(=S)Nc3cccc(S(=O)(=O)N(C)C)c3)c2)cc1	1		0.731 µM [rising, single point]
CCN(CC)C(=O)c1cn(-c2cccc(OC)c2)c(=O)c2ccccc12	-25.4	2.59 µM [falling, full curve, poor fit]	
Cc1nn(-c2ccccc2)c(CC(C)(C)C(=O)O)c1C(=O)O	17.2		0.82 µM [falling, full curve]
O=C(Nc1ccccn1)C1CCN(C(=O)c2ccc(F)cc2)CC1	28		8.2 µM [rising, partial curve]
CSc1nnc2n(-c3ccc(C)cc3)c(=O)c3c4c(sc3n12)COC(C(C)C)C4 (stereo not given)	18		6.51 µM [falling, single point]
CC(C)c1ccc(NC(=O)C(c2ccccc2)N2CCN(C(=O)c3ccco3)CC2)cc1 (stereo not given)			25.9 µM [falling, partial curve, poor fit]
O=C(Nc1cccc(F)c1)NC1(C(=O)N2CCOCC2)CCCCC1		6.51 µM [falling, single point]	6.51 µM [falling, single point]
